Reference: article PMC5444726, “A CD44-specific peptide, RP-1, exhibits capacities of assisting diagnosis and predicting prognosis of gastric cancer” (Oncotarget, 2017)

Tested on: CD44 in gastric carcinoma and surrounding tissues
Assay: Immunohistochemistry of human gastric cancer tissue microarray
Method: Prepared paraffin-embedded sections were deparaffinized, rehydrated, retrieved and blocked with 5% BSA (w/v) in PBS at ambient temperature for 30 min. Then, sections were incubated with 100 μM biotin labeled RP-1 peptide or human specific rabbit anti-CD44 monoclonal antibody (1:200, ZSGB-BIO, Beijing, China) overnight at 4°C. After PBS washing for three times, sections were subsequently incubated with streptavidin-HRP (1:500, Proteintech, Wuhan, China) and goat anti-rabbit secondary antibody (1:300, BOSTER, Wuhan, China). Diaminobenzidine (DAB, ZSGB-BIO, Beijing, China) was used as a chromogen. Finally, the sections were counterstained with hematoxylin and mounted with neutral balsam.
Two TMA slides (Shanghai Outdo Biotech Co LTD, Shanghai, China), each containing 100 GC tissues samples (including 66 adenocarcinoma, 19 tubular adenocarcinoma, 8 mucinous adenocarcinoma, 2 undifferentiated carcinoma and 5 signet-ring cell carcinoma tissue samples) and 80 surrounding tissue samples from 100 patients, were used to evaluate the diagnostic and prognostic effects of RP-1. Samples were obtained from treatment-naive patients with written informed consent signed and dated. Age of the 100 patients with GC ranged from 32 to 81 years (mean, 64.4 years). Their clinicopathological characteristics were described in Table 2. The TNM stage of all patients with GC was assessed according to the American Joint Commission for Cancer (AJCC 7th edition) and tumors were histologically classified according to the criteria described by the World Health Organization (2000). The Medical Ethics Committee of Taizhou Hospital of Zhejiang province reviewed and approved all studies.
We performed immunohistochemical staining of TMA slides with RP-1 and human specific anti-CD44 monoclonal antibody by following the procedure described in the section Immunohistochemistry. The immunoreactivity was assessed with the immunohistochemistry score (HSCORE) system, which evaluated the staining intensity and percentages of positive cells stained at a specific magnitude of intensity. The HSCORE was calculated using the equation HSCORE=∑Pi(i) (i = 0, 1, 2, 3, Pi = 0–100%), in which i was the staining intensity (0, no staining; 1, weak staining; 2, moderate staining; 3, strong staining) and Pi was the percentage of positive cells on a scale of 0% to 100%. Positive cell count was assessed in 5 randomly selected fields of vision with a microscope (400×). All immunohistochemical evaluations were conducted by two independent pathologists […].
Receiver–operator curve (ROC) analysis was performed to determine the cut-off score for both RP-1 peptide and anti-CD44 monoclonal antibody. […]

WHPWSYLWTQQA [RP-1, CD44-specific peptide … screened from a 12-mer phage peptide library]
false-positive rate (80 surrounding tissue samples): 12.5%
specificity (80 surrounding tissue samples, RP-1 vs antibody P = 0.403): 87.5%
sensitivity (100 gastric carcinoma samples, RP-1 vs antibody P = 0.124): 73.0%
AUC of ROC curve (diagnosis of GC, carcinoma vs surrounding tissue): 0.86
